This is an account of results in paper PMC5993538, “The plant-specific transcription factors CBP60g and SARD1 are targeted by a Verticillium secretory protein VdSCP41 to modulate immunity”.

For test [1], the target named is T1, CBP60gN-HA (N-terminal portion of CBP60g, amino acids 1–361) (Arabidopsis) (UniProt F4K2R6).
T1 sequence: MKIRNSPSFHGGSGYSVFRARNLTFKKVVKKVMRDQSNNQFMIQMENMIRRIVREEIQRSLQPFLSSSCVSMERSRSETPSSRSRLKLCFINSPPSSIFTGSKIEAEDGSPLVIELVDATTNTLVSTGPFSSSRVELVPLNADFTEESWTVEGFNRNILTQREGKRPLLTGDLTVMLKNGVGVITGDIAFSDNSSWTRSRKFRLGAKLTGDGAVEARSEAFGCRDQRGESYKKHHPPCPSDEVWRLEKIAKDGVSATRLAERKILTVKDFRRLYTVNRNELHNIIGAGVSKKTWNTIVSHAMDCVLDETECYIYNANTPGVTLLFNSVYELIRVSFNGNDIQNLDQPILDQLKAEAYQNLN
Kind of test: co-IP; Arabidopsis protoplasts co-transfected; anti-HA antibody with protein A agarose, 4°C, 4 hr; VdSCP41-FLAG detected by anti-FLAG immunoblot. A general note: Immunoblotting shows a protein as a band on a membrane.

Test [2] addresses T2, CBP60gC-HA (C-terminal portion of CBP60g, amino acids 211-end) (Arabidopsis) (UniProt F4K2R6).
T2 sequence: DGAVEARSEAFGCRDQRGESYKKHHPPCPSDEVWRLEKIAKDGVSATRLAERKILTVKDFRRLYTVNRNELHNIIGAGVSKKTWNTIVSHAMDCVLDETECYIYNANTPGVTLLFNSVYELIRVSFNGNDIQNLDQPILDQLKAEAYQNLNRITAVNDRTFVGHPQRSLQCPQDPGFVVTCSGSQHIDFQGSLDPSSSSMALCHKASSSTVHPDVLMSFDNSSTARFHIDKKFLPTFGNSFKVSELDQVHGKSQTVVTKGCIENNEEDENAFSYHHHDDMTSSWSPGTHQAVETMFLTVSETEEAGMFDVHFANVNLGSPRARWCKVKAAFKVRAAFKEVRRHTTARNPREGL
The description is as above.

Test [3] deals with T3, SARD1-HA (Arabidopsis) (UniProt Q9C9T2).
T3 sequence: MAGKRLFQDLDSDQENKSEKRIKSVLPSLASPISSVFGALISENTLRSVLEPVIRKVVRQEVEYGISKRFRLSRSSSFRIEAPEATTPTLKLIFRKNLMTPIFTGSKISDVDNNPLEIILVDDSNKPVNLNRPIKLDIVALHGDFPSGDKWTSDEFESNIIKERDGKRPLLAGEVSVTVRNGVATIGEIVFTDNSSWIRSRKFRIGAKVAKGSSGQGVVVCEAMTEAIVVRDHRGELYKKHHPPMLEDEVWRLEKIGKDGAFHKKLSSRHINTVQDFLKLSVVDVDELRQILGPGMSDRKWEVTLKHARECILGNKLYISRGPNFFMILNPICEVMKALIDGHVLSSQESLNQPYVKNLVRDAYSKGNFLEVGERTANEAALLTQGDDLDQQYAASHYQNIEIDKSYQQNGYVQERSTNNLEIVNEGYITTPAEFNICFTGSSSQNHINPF
The test is described as above.

For test [4], the target named is T4, CBP60g_(441-end), HA-tagged (Arabidopsis) (UniProt F4K2R6).
T4 sequence: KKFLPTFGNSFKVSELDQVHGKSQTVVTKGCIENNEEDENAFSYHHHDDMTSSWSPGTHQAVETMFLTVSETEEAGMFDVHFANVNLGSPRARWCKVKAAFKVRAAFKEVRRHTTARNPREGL
The test is described as above.

For test [5], the target named is T5, CBP60g fused with a 3 × HA tag (Arabidopsis) (UniProt F4K2R6).
T5 sequence: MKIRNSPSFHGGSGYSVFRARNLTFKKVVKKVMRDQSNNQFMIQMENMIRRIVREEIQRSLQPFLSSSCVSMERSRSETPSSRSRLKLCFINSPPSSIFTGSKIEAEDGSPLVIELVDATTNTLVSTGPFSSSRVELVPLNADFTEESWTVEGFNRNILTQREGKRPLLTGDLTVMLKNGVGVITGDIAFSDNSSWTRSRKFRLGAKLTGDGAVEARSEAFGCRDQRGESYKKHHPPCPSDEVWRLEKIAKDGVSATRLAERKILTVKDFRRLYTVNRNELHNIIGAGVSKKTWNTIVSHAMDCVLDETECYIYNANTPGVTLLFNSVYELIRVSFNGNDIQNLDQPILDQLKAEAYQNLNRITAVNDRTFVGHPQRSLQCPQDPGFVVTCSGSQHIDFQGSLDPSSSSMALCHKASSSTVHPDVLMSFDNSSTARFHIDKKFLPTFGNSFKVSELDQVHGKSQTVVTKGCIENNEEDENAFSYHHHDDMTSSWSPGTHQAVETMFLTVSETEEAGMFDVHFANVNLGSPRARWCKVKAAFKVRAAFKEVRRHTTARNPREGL
The test is described as above.

Test [6] deals with T6, CLuc-CBP60g (Arabidopsis) (UniProt F4K2R6).
T6 sequence: T5 sequence
Description: split reporter; luciferase complementation imaging in N. benthamiana leaves, Agrobacterium-infiltrated NLuc- and CLuc-tagged constructs, LUC activity 2 days post infiltration, CCD imaging and microplate luminometer.

No constants are given. Whether binding was seen depends on the method and setting. Binding seen in cells or lysates may run through a third protein. For part of these data: Binding can be weak; no strength is given. Where a sequence is shown, tags or fusion partners need not be part of it.

In the case of “FLAG-tagged VdSCP41 (Verticillium dahliae)”, the binding entry in test [1] is “no binding”; in test [2], “binds”; in test [3], “binds”; in test [4] it was “no binding”; in test [5], “binds”.
As for NLuc-VdSCP41 (Verticillium dahliae), the binding result in test [6] is recorded as “binds”.
